Laboratory results: PMC5110995
Residue numbers refer to the chain shown, from its start. Like-named read-outs stand apart in the source and are kept apart here. These are yes or no findings as the source states them, for the method shown. For part of these data: Binding seen in cells or lysates may run through a third protein. Some binding calls cover weakened binding; strength is not graded here. For part of these data: Tags and fused reporters may be left off the sequences shown. Each block holds one molecule with its values, some of them ahead of it.

Sequences of proteins named here, by UniProt entry; tags and fusion partners are left off.
UniProt Q9FJV5: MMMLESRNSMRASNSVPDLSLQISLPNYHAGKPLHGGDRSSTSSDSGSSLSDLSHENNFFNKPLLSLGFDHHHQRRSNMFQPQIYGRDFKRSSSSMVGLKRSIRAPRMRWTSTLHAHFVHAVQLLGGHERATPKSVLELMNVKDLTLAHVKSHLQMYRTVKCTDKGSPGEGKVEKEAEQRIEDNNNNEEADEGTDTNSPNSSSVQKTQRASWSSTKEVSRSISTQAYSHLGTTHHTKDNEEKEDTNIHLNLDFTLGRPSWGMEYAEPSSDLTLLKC

Experiments:
[1] = biological target: T1, ETTIN (ETT)/ARF3 fused to the GAL4 DNA-binding domain (ETT-BD) (Arabidopsis) (UniProt O23661); assay: two-hybrid; yeast AH109, 28°C, cotransformation; YSD lacking Leu, Trp, adenine and His with 1, 2.5 and 5 mM 3-AT; no IAA (ETT-IND also with NAA or 2,4-D in the medium)
T1 sequence: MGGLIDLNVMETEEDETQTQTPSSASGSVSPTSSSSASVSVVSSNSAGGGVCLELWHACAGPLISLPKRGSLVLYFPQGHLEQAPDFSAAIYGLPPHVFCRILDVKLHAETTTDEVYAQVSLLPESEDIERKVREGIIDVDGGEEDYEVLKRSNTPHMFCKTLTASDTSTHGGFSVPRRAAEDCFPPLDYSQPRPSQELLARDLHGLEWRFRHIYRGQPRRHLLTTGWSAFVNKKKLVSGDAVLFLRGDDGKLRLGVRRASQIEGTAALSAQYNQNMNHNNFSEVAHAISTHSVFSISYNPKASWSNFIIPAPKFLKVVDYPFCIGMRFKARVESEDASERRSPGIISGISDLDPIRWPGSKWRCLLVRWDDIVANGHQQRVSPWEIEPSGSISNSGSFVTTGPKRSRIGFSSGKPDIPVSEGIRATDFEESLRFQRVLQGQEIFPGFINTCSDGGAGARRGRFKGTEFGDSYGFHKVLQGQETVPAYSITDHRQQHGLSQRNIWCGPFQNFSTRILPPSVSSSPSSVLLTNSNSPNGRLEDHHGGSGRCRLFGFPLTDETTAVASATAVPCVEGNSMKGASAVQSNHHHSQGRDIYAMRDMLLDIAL

[2] = biological target: T2, ETT in pYFPN43 (pYFPN-ETT) for BiFC (Arabidopsis) (UniProt O23661); assay: split reporter; BiFC with pYFPN-ETT and pYFPC-IND plus p19 (pEAQ-HT); images 72 h after infiltration; also with 1 mM IAA, NAA or 2,4-D in lanolin applied 24 and 48 h after infiltration
T2 sequence: T1 sequence

[3] = biological target: T3, ETT-CFP (FRET/FLIM in protoplasts) (Arabidopsis) (UniProt O23661); assay: FRET or BRET; FRET/FLIM, CFP lifetime, in transfected Arabidopsis mesophyll protoplasts; n = 28 cells
T3 sequence: T1 sequence

[4] = biological target: T4, SPATULA (SPT) fused to the GAL4 DNA-binding domain (SPT-BD) (Arabidopsis) (UniProt Q9FUA4); assay: two-hybrid; as a2, with IAA (dissolved in ethanol) added to the medium
T4 sequence: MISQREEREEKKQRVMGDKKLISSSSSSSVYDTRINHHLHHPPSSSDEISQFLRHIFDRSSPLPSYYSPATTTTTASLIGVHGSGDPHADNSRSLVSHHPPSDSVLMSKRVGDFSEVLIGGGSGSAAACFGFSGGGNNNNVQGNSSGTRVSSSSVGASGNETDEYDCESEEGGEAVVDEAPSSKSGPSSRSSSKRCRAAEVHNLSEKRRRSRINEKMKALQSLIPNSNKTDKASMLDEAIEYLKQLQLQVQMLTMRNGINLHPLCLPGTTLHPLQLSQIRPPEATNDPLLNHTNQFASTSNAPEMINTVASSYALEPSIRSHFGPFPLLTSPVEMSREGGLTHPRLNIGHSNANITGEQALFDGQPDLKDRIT

[5] = biological target: T5, ETT-C452S-C506S (ETT^2C-S) fused to the GAL4 DNA-binding domain (Arabidopsis) (UniProt O23661); assay: as above
T5 sequence: T1 sequence with C452S, C506S

[6] = biological target: T4, SPATULA (SPT) fused to the GAL4 DNA-binding domain (SPT-BD) (Arabidopsis); assay: two-hybrid; yeast AH109, 28°C, cotransformation; YSD lacking Leu, Trp, adenine and His with 1, 2.5 and 5 mM 3-AT; no IAA (ETT-IND also with NAA or 2,4-D in the medium)
[7] = biological target: T5, ETT-C452S-C506S (ETT^2C-S) fused to the GAL4 DNA-binding domain (Arabidopsis); assay: as above
[8] = biological target: T1, ETTIN (ETT)/ARF3 fused to the GAL4 DNA-binding domain (ETT-BD) (Arabidopsis); assay: as above; remark: listed apart in the source
[9] = biological target: T6, ETT-CFP expressed from pETT(3.7kb)::ETT-CFP in plants (Arabidopsis) (UniProt O23661); assay: FRET or BRET; in vivo CFP-YFP FRET by acceptor photobleaching in nuclei of stylar cells (stage 10-11) of plants expressing ETT-CFP and IND-YFP; 200 nuclei
T6 sequence: T1 sequence

binding [1]: binds
Molecule: ABERRANT TESTA SHAPE (ATS; also known as KANADI4) fused to the AD domain (from UniProt Q9FJV5 1-276)

binding [2]: binds
B1: IND in pYFPC43 (pYFPC-IND) for BiFC (protein, UniProt O81313 1-198)
chain: MENGMYKKKGVCDSCVSSKSRSNHSPKRSMMEPQPHHLLMDWNKANDLLTQEHAAFLNDPHHLMLDPPPETLIHLDEDEEYDEDMDAMKEMQYMIAVMQPVDIDPATVPKPNRRNVRISDDPQTVVARRRRERISEKIRILKRIVPGGAKMDTASMLDEAIRYTKFLKRQVRILQPHSQIGAPMANPSYLCYYHNSQP

binding [3]: binds
B2: IND-YFP (FRET/FLIM in protoplasts) (protein, UniProt O81313 1-198)
chain: B1 chain

binding [4]: binds
binding [5]: binds
binding [6]: binds
binding [7]: binds
binding [8]: binds
B3: … (IND) fused to the GAL4 activation domain (IND-AD) (protein, UniProt O81313 1-198)
chain: B1 chain

binding [9]: binds
B4: IND-YFP expressed from pIND (3.2kb)::IND-YFP in plants (protein, UniProt O81313 1-198)
chain: B1 chain
